The target in this test is human STAT6 (Homo sapiens (Human), UniProt P42226). The experiment in a line: Surface plasmon resonance assay (Biacore 8K, binding to immobilized STAT6). The conditions noted are these: read-out: STAT6 SPR Kd; human STAT6 aa122-658, N-terminal His-tag, CM5 chip, 25° C.; geometric mean. (Surface plasmon resonance follows binding to a sensor surface in real time, without labels.)

Chains of the proteins cited; added tags and fusions are not shown. Residues count along the entry.
UniProt P42226, 122-658 limits assumed: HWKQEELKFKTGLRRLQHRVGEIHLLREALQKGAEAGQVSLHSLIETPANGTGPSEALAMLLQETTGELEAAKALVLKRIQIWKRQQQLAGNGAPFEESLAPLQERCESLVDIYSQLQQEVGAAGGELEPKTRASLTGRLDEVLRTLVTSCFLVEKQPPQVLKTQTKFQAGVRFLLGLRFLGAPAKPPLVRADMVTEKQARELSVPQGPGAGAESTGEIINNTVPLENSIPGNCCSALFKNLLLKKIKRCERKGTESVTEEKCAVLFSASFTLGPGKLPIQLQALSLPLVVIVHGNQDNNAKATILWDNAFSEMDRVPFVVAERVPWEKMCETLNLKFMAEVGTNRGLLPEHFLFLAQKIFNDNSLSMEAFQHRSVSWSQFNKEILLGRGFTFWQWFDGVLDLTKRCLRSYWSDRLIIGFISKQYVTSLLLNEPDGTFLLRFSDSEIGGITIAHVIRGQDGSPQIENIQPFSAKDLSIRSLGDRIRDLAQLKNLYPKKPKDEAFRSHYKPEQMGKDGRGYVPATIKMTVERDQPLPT

We go through two compounds from patent publication US20250340551A1, “SMALL MOLECULE MODULATORS OF STAT6” (Gilead Sciences, Inc., priority 2024, published 2025).

The match of structure and compound is tentative.

The Kd is a measure of binding affinity in units of concentration. `CNc1ccc(-c2ccnc3c2cc(CN2CCC(c4ccc(C(=O)N(C)C)cc4)CC2)n3CC(C)(F)F)cn1`: the Kd turned out to be 628 nM. For the compound `CN(C)C(=O)c1ccc(C2CCN(Cc3cc4c(-c5ccc(N)c[n+]5[O-])ccnc4n3C)CC2)cc1`, the dissociation constant Kd stood at 23.9 nM.
